{"source": "patent US7732203B2", "about": "“Method for transdifferentiating mesenchymal stem cells into neuronal cells” (Ajoll University Industry Cooperation Foundation, priority 2002, dated 2010)", "tested_on": "voltage dependent L-type Ca2+ channel", "assay": "Electrophysiological (patch-clamp) recording of transdifferentiated neuronal cells", "format": "cell-based, human", "details": "4 μM; recovered by removal (FIG. 7B, 7C)", "note": "At least one compound was matched to its structure with a doubt left.", "data": [{"smiles": "COC(=O)C1=C(C)NC(C)=C(C(=O)OCCN(C)Cc2ccccc2)C1c1cccc([N+](=O)[O-])c1", "note": "(stereo not shown) [nicardipine]", "values": [{"measurement": "effect on inward current of MSC/Ngn1 cells", "value": "selectively blocked"}]}]}
